The source of these data is patent US5502164A (priority 1992, dated 1996).

The data set can be described thus: solid-phase peptide synthesis. The settings on record: whole synthesis, ammonium salt.

Take “Hpa(SO3 H)-Met-Gly-Trp-Met-Asp-MePhe-NH2 (SEQ ID NO 3)”: the difficulty met result is “As a result of racemization during the synthesis of Example 9”.
